# Assay results as given in the supplement of paper PMC10849652.
# By UniProt entry, the sequences of proteins in these tests, tags left out. Where a name states a change or a piece, a line headed by the entry shows the natural chain unless it says otherwise.
# UniProt Q15544, whole entry, looked up: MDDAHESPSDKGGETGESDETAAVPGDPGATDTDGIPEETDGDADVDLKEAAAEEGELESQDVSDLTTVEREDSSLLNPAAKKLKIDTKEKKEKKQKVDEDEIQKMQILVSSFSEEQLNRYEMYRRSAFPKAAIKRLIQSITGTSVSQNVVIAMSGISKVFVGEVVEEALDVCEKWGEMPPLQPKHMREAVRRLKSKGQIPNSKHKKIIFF
# UniProt Q8NFX7: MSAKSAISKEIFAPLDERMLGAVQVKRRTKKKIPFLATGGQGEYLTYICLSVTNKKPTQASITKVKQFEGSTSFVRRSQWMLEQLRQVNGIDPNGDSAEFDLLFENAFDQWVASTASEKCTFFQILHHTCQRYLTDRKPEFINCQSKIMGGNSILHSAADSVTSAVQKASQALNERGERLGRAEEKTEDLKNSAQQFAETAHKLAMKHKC
# UniProt Q96L08: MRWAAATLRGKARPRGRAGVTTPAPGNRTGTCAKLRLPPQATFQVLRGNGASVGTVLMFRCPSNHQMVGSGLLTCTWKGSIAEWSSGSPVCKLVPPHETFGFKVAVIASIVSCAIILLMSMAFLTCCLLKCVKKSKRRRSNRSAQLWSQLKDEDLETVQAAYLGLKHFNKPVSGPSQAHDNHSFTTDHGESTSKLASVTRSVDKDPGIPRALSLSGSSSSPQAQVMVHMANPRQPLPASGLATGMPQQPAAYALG
# UniProt O94901, whole entry, looked up: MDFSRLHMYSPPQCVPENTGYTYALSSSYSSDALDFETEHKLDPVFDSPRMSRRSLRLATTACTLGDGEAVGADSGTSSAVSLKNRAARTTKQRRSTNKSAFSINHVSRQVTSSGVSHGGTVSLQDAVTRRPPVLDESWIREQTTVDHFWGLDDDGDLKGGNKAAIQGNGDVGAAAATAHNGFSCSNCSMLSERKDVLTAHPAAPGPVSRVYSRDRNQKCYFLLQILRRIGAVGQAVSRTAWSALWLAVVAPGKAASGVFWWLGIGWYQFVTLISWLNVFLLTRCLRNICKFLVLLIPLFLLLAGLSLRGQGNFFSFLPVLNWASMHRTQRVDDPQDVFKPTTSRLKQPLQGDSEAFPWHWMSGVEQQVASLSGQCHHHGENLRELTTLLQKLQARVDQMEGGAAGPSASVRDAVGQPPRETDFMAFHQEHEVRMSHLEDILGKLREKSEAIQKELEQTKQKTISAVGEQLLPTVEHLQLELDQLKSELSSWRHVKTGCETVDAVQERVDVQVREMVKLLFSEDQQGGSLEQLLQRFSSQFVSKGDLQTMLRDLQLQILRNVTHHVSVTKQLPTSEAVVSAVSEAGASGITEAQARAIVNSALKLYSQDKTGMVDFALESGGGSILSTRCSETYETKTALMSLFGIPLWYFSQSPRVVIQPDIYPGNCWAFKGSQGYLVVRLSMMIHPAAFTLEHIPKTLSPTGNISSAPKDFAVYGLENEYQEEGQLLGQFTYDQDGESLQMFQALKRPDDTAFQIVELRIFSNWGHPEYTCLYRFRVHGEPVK
# UniProt O00268, whole entry, looked up: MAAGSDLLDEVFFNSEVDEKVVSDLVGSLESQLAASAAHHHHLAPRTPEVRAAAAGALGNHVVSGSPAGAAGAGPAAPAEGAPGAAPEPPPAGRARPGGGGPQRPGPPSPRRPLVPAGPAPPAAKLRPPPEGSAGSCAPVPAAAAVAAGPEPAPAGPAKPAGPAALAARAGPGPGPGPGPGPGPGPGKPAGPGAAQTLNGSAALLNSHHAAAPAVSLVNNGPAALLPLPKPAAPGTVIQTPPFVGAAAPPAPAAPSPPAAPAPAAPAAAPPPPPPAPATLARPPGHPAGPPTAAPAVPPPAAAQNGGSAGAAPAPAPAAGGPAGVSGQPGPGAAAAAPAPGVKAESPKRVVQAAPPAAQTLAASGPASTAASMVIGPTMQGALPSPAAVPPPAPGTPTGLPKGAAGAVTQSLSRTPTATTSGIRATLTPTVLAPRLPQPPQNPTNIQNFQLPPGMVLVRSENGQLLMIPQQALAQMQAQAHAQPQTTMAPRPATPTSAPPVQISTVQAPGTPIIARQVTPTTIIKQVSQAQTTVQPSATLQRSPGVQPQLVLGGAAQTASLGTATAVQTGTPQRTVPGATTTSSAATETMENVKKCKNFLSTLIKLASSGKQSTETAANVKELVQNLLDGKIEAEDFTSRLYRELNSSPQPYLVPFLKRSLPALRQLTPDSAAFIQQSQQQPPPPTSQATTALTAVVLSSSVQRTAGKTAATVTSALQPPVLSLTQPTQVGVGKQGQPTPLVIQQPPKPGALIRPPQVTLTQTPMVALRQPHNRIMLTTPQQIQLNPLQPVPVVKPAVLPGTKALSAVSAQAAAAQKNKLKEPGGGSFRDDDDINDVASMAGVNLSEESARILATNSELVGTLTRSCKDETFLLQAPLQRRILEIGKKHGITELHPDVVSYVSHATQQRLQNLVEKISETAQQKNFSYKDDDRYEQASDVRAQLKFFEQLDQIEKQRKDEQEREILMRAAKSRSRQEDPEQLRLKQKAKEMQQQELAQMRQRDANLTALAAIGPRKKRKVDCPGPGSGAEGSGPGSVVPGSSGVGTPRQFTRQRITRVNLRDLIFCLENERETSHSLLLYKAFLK
# UniProt Q9HAC7: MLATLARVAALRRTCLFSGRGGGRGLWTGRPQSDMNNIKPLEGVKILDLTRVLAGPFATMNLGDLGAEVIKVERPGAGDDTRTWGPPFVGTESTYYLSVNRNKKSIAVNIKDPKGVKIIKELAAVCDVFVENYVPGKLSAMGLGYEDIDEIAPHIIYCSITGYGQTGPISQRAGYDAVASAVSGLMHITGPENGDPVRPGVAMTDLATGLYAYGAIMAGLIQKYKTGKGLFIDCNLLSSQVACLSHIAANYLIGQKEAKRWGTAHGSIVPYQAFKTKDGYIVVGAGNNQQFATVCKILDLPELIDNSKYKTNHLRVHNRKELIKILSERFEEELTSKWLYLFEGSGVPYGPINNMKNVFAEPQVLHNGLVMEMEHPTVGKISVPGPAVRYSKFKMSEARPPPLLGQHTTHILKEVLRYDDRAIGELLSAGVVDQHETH
# UniProt Q9C0K7: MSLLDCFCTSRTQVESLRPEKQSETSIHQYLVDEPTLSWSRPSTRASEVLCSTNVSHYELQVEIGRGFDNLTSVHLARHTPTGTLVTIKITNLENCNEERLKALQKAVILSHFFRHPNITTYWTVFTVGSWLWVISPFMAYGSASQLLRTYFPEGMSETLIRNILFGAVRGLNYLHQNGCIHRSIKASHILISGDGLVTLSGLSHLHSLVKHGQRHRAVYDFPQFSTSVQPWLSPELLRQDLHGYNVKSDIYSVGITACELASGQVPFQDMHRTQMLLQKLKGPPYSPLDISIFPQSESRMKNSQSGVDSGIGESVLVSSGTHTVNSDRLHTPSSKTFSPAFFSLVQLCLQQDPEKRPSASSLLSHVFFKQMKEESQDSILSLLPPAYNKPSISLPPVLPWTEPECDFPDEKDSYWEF
# UniProt Q15573: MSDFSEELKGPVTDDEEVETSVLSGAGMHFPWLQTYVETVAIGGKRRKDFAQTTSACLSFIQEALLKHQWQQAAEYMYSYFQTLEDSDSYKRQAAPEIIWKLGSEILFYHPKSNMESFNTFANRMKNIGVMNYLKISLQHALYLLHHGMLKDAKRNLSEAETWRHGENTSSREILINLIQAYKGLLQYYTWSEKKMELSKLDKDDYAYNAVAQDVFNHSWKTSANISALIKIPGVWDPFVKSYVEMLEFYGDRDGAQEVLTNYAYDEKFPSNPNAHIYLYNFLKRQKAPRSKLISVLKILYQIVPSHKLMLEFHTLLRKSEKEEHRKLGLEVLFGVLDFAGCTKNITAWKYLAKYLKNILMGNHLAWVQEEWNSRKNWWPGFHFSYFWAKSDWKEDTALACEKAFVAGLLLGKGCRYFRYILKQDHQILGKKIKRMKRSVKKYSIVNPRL
# UniProt Q9UBS9: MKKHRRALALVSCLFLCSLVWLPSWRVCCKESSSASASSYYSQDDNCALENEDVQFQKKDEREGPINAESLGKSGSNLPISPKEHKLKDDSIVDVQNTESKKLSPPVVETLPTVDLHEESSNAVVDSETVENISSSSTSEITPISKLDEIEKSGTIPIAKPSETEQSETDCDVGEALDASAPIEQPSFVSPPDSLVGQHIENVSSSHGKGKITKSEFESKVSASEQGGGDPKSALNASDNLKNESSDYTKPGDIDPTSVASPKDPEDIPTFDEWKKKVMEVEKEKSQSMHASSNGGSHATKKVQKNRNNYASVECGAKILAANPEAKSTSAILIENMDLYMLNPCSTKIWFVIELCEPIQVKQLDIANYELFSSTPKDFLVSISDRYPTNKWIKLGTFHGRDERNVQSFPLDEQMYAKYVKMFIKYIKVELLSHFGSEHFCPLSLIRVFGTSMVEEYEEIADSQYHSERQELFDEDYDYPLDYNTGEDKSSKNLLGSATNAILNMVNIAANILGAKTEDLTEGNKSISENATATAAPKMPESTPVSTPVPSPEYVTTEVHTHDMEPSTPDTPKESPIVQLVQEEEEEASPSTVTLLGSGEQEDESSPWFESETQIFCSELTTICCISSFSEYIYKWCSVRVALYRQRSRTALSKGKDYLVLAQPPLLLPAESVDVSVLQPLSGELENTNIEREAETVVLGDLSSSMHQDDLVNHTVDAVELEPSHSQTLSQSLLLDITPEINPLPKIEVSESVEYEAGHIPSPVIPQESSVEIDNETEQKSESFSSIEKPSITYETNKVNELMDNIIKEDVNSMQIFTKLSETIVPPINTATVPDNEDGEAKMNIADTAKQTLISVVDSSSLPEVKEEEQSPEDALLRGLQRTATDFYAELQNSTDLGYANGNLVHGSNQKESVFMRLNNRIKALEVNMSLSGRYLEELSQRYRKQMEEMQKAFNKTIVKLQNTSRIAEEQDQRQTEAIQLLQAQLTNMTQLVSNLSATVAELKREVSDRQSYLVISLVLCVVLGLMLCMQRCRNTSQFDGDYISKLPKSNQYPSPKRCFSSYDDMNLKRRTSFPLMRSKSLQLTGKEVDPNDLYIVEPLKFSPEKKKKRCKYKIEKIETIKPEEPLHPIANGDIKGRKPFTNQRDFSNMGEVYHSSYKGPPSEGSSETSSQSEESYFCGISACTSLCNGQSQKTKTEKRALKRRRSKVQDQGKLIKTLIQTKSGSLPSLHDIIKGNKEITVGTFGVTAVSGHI
# UniProt Q15527: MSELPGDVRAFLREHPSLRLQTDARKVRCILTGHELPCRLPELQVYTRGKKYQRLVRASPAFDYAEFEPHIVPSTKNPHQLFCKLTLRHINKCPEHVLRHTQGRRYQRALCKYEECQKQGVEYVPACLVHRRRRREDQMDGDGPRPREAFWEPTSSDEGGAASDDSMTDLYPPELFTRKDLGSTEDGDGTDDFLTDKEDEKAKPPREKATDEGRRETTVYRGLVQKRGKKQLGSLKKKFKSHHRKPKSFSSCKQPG
# UniProt P57105: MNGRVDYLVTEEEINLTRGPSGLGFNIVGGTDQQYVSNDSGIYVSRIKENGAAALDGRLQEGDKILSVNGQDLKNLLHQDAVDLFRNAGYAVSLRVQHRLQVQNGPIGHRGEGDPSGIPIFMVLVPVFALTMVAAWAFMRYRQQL
# UniProt Q13033: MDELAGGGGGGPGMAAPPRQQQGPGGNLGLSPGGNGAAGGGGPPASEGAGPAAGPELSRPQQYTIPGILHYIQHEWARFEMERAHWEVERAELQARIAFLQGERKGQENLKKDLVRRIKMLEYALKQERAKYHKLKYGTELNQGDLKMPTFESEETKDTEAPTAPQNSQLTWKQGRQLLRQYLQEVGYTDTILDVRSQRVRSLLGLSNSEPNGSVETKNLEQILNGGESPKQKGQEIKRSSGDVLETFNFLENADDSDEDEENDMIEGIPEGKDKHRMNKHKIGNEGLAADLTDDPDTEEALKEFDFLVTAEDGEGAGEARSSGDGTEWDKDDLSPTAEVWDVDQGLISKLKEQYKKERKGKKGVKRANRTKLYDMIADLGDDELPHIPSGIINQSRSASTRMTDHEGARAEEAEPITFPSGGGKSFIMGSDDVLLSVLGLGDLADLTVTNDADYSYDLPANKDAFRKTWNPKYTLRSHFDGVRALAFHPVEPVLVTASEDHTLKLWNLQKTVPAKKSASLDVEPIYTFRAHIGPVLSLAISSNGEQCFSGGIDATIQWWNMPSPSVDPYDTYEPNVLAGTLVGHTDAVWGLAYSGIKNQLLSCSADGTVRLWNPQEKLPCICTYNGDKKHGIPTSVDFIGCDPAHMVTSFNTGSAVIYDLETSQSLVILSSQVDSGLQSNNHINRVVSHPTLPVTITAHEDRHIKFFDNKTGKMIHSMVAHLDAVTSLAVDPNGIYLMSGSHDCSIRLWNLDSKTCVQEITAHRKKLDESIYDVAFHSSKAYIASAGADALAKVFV
# UniProt Q6NVH7: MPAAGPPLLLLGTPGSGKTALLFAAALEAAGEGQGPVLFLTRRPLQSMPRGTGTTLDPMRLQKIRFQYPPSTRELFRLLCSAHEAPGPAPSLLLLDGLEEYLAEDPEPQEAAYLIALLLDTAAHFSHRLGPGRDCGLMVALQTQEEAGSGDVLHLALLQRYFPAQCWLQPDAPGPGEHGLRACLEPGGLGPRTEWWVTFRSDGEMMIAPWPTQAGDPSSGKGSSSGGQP
# The other results are listed elsewhere or left out.
# Tests used:
# Test in all cases: log2 fold change, soluble protein after heating vs DMSO (PISA); higher = thermal stabilisation; K562 lysate, 10 uM; active = over 0.2 and 3.5 SD of the protein, either way, in both replicates (recomputed)
# [1] = compound: CN1CC[C@H](c2c(O)cc(O)c3c(=O)cc(-c4ccccc4Cl)oc23)[C@H](O)C1 [alvocidib]
# Method in brief: (§1)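 The values are log-two fold changes in thermal stability compared with solvent controls and come from duplicates. They were obtained by TMTpro 16plex LC-MS/MS, with channel sums equalised, on the supernatant after 21,000xg for 90 min. That supernatant came from crude K562 extract at 1 mg/mL protein treated with 10 μM compound for 30 min, heated for 3 min across 48°C-58°C, pooled and brought to 0.5% NP-40 at 4°C.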
# [2] = compound: CN1CCc2c(c3ccccc3n2Cc2ccc(C(=O)NO)cc2)C1 [Tubastatin A]
# Method in brief: as §1
# [3] = compound: CNC(=O)c1ccc(Nc2ncc(C(F)(F)F)c(NCc3nccnc3N(C)S(C)(=O)=O)n2)cc1 [defactinib]
# Method in brief: as §1
# [4] = compound: CNc1nc(-c2ccc3c(N)n[nH]c3c2)cc(N2C[C@@H](C(=O)NC3CCCCC3)CC[C@H]2C)n1
# Method in brief: as §1
# [5] = compound: COC(=O)N[C@@H](C)CNc1nccc(-c2cn(C(C)C)nc2-c2cc(Cl)cc(NS(C)(=O)=O)c2F)n1 [encorafenib]
# Method in brief: as §1
# [6] = compound: COC(=O)[C@H](CCSC)NC(=O)C1=C(C=C(C=C1)NC[C@H](CS)N)C2=CC=CC=C2
# Method in brief: as §1
# [7] = compound: COc1cc(Nc2ncc3c(n2)-c2ccc(Cl)cc2C(c2c(F)cccc2OC)=NC3)ccc1C(=O)O [alisertib]
# Method in brief: as §1
# [8] = compound: COc1cc2nc(-c3cc(F)ccc3O)nc(N[C@@H]3CNC[C@H]3C(C)(C)O)c2cc1OC
# Method in brief: as §1
# [9] = compound: COc1cc2ncnc(Nc3ccc(F)c(Cl)c3)c2cc1OCCCN1CCOCC1 [gefitinib]
# Method in brief: as §1
# [10] = compound: CNC(=O)C1=CC=CC=C1NC2=NC(=NC=C2Cl)NC3=C(C=C(C=C3)N4CCOCC4)OC
# Method in brief: as §1
target,measurement,setting,value
TAF11 (UniProt Q15544),log2 fold change,[1],inactive: -0.015
same,log2 fold change,[2],inactive: 0.014
same,log2 fold change,[3],inactive: -0.151
same,log2 fold change,[4],inactive: 0.137
same,log2 fold change,[5],inactive: -0.155
same,log2 fold change,[6],active: 0.398
same,log2 fold change,[7],inactive: -0.053
same,log2 fold change,[8],inactive: 0.048
same,log2 fold change,[9],inactive: 0.064
TAF3 (UniProt Q5VWG9),log2 fold change,[1],inactive: 0.111
same,log2 fold change,[2],inactive: -0.129
same,log2 fold change,[7],inactive: -0.045
same,log2 fold change,[8],inactive: 0.002
same,log2 fold change,[9],inactive: 0.238
STXBP6 (UniProt Q8NFX7),log2 fold change,[1],inactive: -0.07
same,log2 fold change,[2],inactive: -0.281
same,log2 fold change,[10],inactive: -0.358
same,log2 fold change,[7],inactive: 0.119
same,log2 fold change,[9],inactive: -0.04
STK16 (UniProt O75716),log2 fold change,[2],inactive: -0.049
same,log2 fold change,[10],inactive: 0.427
same,log2 fold change,[3],inactive: 0.671
same,log2 fold change,[4],inactive: -0.015
same,log2 fold change,[5],inactive: -0.861
same,log2 fold change,[6],inactive: -0.817
same,log2 fold change,[8],inactive: 0.254
SUSD3 (UniProt Q96L08),log2 fold change,[1],inactive: -0.066
same,log2 fold change,[2],inactive: 0.16
same,log2 fold change,[10],inactive: -0.17
same,log2 fold change,[8],inactive: -0.111
SUN1 isoform 9 (UniProt O94901),log2 fold change,[2],inactive: 0.067
TAF4 (UniProt O00268),log2 fold change,[2],inactive: -0.046
same,log2 fold change,[10],inactive: -0.051
same,log2 fold change,[3],inactive: -0.024
same,log2 fold change,[4],inactive: 0.023
same,log2 fold change,[5],inactive: -0.006
same,log2 fold change,[6],inactive: -0.016
same,log2 fold change,[7],inactive: 0.029
same,log2 fold change,[8],inactive: -0.154
same,log2 fold change,[9],inactive: -0.041
SYTL2 isoform 8 (UniProt Q9HCH5),log2 fold change,[4],inactive: 0.539
same,log2 fold change,[8],inactive: 0.257
SUGCT isoform 3 (UniProt Q9HAC7),log2 fold change,[4],inactive: -0.153
same,log2 fold change,[5],inactive: 0.083
same,log2 fold change,[6],inactive: -0.112
STRADB (UniProt Q9C0K7),log2 fold change,[10],inactive: 0.419
TAF1A (UniProt Q15573),log2 fold change,[3],inactive: 0.263
same,log2 fold change,[7],inactive: 0.15
same,log2 fold change,[9],inactive: 0.114
SUCO isoform 2 (UniProt Q9UBS9),log2 fold change,[2],inactive: -0.086
same,log2 fold change,[3],inactive: -0.035
same,log2 fold change,[5],inactive: 0.044
same,log2 fold change,[6],inactive: -0.065
SURF2 (UniProt Q15527),log2 fold change,[1],inactive: -0.02
same,log2 fold change,[2],inactive: -0.276
same,log2 fold change,[3],inactive: 0.016
same,log2 fold change,[4],inactive: 0.013
same,log2 fold change,[5],inactive: -0.001
same,log2 fold change,[6],active: -0.319
same,log2 fold change,[7],inactive: -0.005
same,log2 fold change,[8],inactive: 0.011
same,log2 fold change,[9],inactive: -0.041
SUPT20H isoform 3 (UniProt Q8NEM7),log2 fold change,[2],inactive: 0.01
same,log2 fold change,[10],inactive: 0.419
same,log2 fold change,[3],inactive: -0.016
same,log2 fold change,[4],inactive: 0.414
same,log2 fold change,[5],inactive: 0.061
same,log2 fold change,[6],inactive: -0.103
same,log2 fold change,[7],inactive: 0.088
same,log2 fold change,[8],inactive: 0.296
same,log2 fold change,[9],inactive: -0.468
SYNJ2BP (UniProt P57105),log2 fold change,[2],inactive: -0.022
same,log2 fold change,[10],inactive: 0.012
same,log2 fold change,[3],inactive: 0.17
same,log2 fold change,[4],inactive: -0.039
same,log2 fold change,[5],inactive: -0.029
same,log2 fold change,[6],inactive: 0.091
same,log2 fold change,[7],inactive: -0.053
same,log2 fold change,[8],inactive: 0.032
same,log2 fold change,[9],inactive: 0.187
STRN3 (UniProt H0YJT2),log2 fold change,[1],inactive: 0.024
same,log2 fold change,[4],inactive: 0
same,log2 fold change,[5],inactive: -0.014
same,log2 fold change,[6],inactive: 0.07
STRN3 isoform 2 (UniProt Q13033),log2 fold change,[1],inactive: 0.075
same,log2 fold change,[4],inactive: 0.015
SWSAP1 (UniProt Q6NVH7),log2 fold change,[2],inactive: -0.163
same,log2 fold change,[10],inactive: 0.066
same,log2 fold change,[4],inactive: -0.005
same,log2 fold change,[7],inactive: -0.191
same,log2 fold change,[9],inactive: 0.044
SYNM (UniProt O15061),log2 fold change,[1],inactive: -0.042
same,log2 fold change,[5],inactive: 0.09
same,log2 fold change,[6],inactive: 0.015
SUPT5H isoform 2 (UniProt O00267),log2 fold change,[3],inactive: -0.08
same,log2 fold change,[4],inactive: -0.065
same,log2 fold change,[7],inactive: -0.06
same,log2 fold change,[8],inactive: -0.021
same,log2 fold change,[9],inactive: -0.102

# Reprinted at random: 5 entries already listed.
target,measurement,setting,value
SUGCT isoform 3 (UniProt Q9HAC7),log2 fold change,[4],inactive: -0.153
STK16 (UniProt O75716),log2 fold change,[10],inactive: 0.427
TAF11 (UniProt Q15544),log2 fold change,[8],inactive: 0.048
STXBP6 (UniProt Q8NFX7),log2 fold change,[10],inactive: -0.358
SWSAP1 (UniProt Q6NVH7),log2 fold change,[4],inactive: -0.005
